Measurements published in paper PMC10721834.
These are yes or no findings as the source states them, for the method shown. In cells and extracts the contact can be indirect. These calls come from enrichment with a bait or labelling near it, and not all partners need be listed.

Chains of the proteins cited; added tags and fusions are not shown.
UniProt Q92462: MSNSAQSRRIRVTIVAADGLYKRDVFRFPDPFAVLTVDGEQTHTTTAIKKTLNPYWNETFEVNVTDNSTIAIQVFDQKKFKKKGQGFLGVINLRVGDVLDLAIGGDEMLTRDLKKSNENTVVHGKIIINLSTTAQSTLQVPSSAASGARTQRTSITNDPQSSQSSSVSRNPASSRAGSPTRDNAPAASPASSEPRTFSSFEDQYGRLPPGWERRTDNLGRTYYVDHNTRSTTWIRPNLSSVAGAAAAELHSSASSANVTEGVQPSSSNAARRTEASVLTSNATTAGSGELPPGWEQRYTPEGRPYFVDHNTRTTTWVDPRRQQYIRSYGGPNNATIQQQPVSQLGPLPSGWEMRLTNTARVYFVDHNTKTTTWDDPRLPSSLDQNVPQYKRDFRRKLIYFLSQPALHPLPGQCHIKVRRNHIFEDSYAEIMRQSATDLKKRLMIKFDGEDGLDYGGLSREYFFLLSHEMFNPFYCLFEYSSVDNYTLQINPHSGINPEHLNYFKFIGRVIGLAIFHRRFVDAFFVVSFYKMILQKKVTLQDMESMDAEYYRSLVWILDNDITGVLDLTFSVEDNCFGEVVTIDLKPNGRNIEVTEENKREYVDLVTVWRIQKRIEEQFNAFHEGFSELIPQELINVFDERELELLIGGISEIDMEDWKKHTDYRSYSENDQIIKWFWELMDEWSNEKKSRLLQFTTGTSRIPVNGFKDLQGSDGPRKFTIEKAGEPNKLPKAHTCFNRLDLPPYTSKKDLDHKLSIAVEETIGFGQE

Target: GFP-Cw9a(1-52) (S. pombe (natural isolate CBS5557))
Assay: affinity purification with mass spectrometry; GFP-Cw9a(1-52) purified from S. pombe lysate on GFP-Trap agarose beads, 2 h at 4 °C; co-purified proteins identified by mass spectrometry

“Pub1 (from UniProt Q92462 1-767) (enzyme)” was tested, and the binding was “binds”.
